PubChem BioAssay AID1224830, NIAID – 2016

Assay: 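Genes whose knock-down alters the TNF-alpha reporter response to LPS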 (primary screen)
Cells: human THP-1 monocytic leukaemia cells, TNF dual-luciferase reporter clone, PMA-differentiated to macrophage-like cells
Reagents: siRNA pool against human genes, 50 nM
Time to read-out: LPS for 4 h, given about 3 days after siRNA transfection
Conditions: bacterial LPS (TLR4 ligand), 10 ng/ml
Read-out: 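Ratio of firefly to renilla light, scaled to the plate median and expressed as a robust z-score per replicate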
Reading the numbers: TNF reporter robust z-score: higher = stronger TNF reporter response to LPS
Call rule: 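a well is active when its z-score exceeds 2.8 or falls below -1.5; control wells carry no call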
In all, the deposit lists about 18,000 reagents; shown is a part drawn at random. Over the whole deposit, about 2,900 (16%) were called active. 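Calls are made per well; low scores hint the gene aids the LPS response, high scores that it dampens it.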 Repeated entries: four replicate wells of each siRNA pool.

| gene knocked down | TNF reporter robust z-score | call |
| --- | --- | --- |
| MRAP | 1.08 | inactive |
| MRAP | 1.03 | inactive |
| MRAP | 0 | inactive |
| MRAP | 1.41 | inactive |
| LCN10 | -1.66 | active |
| LCN10 | 0.42 | inactive |
| LCN10 | -0.47 | inactive |
| LCN10 | 1.65 | inactive |
| ZNF627 | 1.56 | inactive |
| ZNF627 | 3.35 | active |
| ZNF627 | 0.38 | inactive |
| ZNF627 | 2.36 | inactive |
| ZNF41 | 0.33 | inactive |
| ZNF41 | -0.03 | inactive |
| ZNF41 | 0.72 | inactive |
| ZNF41 | 2 | inactive |
| TTN | -1.15 | inactive |
| TTN | 1.09 | inactive |
| TTN | 0.27 | inactive |
| TTN | -0.52 | inactive |
| ALOX12B | 0.07 | inactive |
| ALOX12B | 0.03 | inactive |
| ALOX12B | 0.63 | inactive |
| ALOX12B | 0.61 | inactive |
| TMEM50B | 1.31 | inactive |
| TMEM50B | 1.85 | inactive |
| TMEM50B | 1.46 | inactive |
| TMEM50B | 2 | inactive |
| EIF4E3 | -1.5 | inactive |
| EIF4E3 | -0.72 | inactive |
| EIF4E3 | -1.39 | inactive |
| EIF4E3 | -0.09 | inactive |
| PPA1 | -2.02 | active |
| PPA1 | -1.07 | inactive |
| PPA1 | -1.36 | inactive |
| PPA1 | -1.02 | inactive |
| FBXO28 | 0.63 | inactive |
| FBXO28 | 0.5 | inactive |
| FBXO28 | 0.36 | inactive |
| FBXO28 | 0.73 | inactive |
| FGFBP2 | -1 | inactive |
| FGFBP2 | -0.88 | inactive |
| FGFBP2 | -1.21 | inactive |
| FGFBP2 | -0.52 | inactive |
| RGS18 | -0.34 | inactive |
| RGS18 | 11.6 | active |
| RGS18 | -0.37 | inactive |
| RGS18 | -0.97 | inactive |
| SERPINI2 | -1.94 | active |
| SERPINI2 | -1.08 | inactive |
| SERPINI2 | -1.15 | inactive |
| SERPINI2 | -1.18 | inactive |
| OR10G3 | 0.36 | inactive |
| OR10G3 | 0.67 | inactive |
| OR10G3 | 0.07 | inactive |
| OR10G3 | 1.08 | inactive |
| DCXR | 1.63 | inactive |
| DCXR | 0.7 | inactive |
| DCXR | 1.03 | inactive |
| DCXR | 1.2 | inactive |
| PLOD3 | -1.91 | active |
| PLOD3 | -2.16 | active |
| PLOD3 | -1.97 | active |
| PLOD3 | -1.98 | active |
| GRM7 | 0.7 | inactive |
| GRM7 | 1.54 | inactive |
| GRM7 | 3.08 | active |
| GRM7 | 1.23 | inactive |
| OXT | 0.34 | inactive |
| OXT | 1.23 | inactive |
| OXT | -0.38 | inactive |
| OXT | 0.85 | inactive |
| YTHDF2 | 1.15 | inactive |
| YTHDF2 | 0.09 | inactive |
| YTHDF2 | 0.67 | inactive |
| YTHDF2 | 0.14 | inactive |
| UMODL1 | -0.99 | inactive |
| UMODL1 | -0.77 | inactive |
| UMODL1 | -0.6 | inactive |
| UMODL1 | -0.98 | inactive |
| MAGEB4 | 0.1 | inactive |
| MAGEB4 | 1.7 | inactive |
| MAGEB4 | -0.06 | inactive |
| MAGEB4 | 0.91 | inactive |
| OGFRL1 | 0.14 | inactive |
| OGFRL1 | -0.61 | inactive |
| OGFRL1 | -0.78 | inactive |
| OGFRL1 | 0.37 | inactive |
| BANP | 0.22 | inactive |
| BANP | 0.78 | inactive |
| BANP | -1.06 | inactive |
| BANP | 0.46 | inactive |
| SLC9B1 | 0.6 | inactive |
| SLC9B1 | 0.45 | inactive |
| SLC9B1 | -0.05 | inactive |
| SLC9B1 | 0.63 | inactive |
| OSBPL7 | 3.67 | active |
| OSBPL7 | 0.85 | inactive |
| OSBPL7 | -0.38 | inactive |
| OSBPL7 | 0.57 | inactive |
| CERS1 | -0.66 | inactive |
| CERS1 | 0.24 | inactive |
| CERS1 | 1.39 | inactive |
| CERS1 | 0.1 | inactive |
| TAS2R5 | 1.56 | inactive |
| TAS2R5 | 2.13 | inactive |
| TAS2R5 | 0.71 | inactive |
| TAS2R5 | 1.44 | inactive |
| OR4F15 | 0.6 | inactive |
| OR4F15 | 2.12 | inactive |
| OR4F15 | -1.15 | inactive |
| OR4F15 | -0.64 | inactive |

Entries listed above called active:
| gene knocked down | TNF reporter robust z-score | call |
| --- | --- | --- |
| LCN10 | -1.66 | active |
| ZNF627 | 3.35 | active |
| PPA1 | -2.02 | active |
| RGS18 | 11.6 | active |
| SERPINI2 | -1.94 | active |
| PLOD3 | -1.91 | active |
| PLOD3 | -2.16 | active |
| PLOD3 | -1.97 | active |
| PLOD3 | -1.98 | active |
| GRM7 | 3.08 | active |
| OSBPL7 | 3.67 | active |
